Experimental data as given in patent US20110282033A1 (Ablynx, published 2011).
These are yes or no findings as the source states them, for the method shown. Some entries that bind do so weakly or less than the wild type.

By UniProt entry, the sequences of proteins in these tests, tags left out. Where a name states a change or a piece, a line headed by the entry shows the natural chain unless it says otherwise. Chains listed by the source or under a name are the forms on record and can include a tag or linker.
sVEGFR1 (P17948, form named): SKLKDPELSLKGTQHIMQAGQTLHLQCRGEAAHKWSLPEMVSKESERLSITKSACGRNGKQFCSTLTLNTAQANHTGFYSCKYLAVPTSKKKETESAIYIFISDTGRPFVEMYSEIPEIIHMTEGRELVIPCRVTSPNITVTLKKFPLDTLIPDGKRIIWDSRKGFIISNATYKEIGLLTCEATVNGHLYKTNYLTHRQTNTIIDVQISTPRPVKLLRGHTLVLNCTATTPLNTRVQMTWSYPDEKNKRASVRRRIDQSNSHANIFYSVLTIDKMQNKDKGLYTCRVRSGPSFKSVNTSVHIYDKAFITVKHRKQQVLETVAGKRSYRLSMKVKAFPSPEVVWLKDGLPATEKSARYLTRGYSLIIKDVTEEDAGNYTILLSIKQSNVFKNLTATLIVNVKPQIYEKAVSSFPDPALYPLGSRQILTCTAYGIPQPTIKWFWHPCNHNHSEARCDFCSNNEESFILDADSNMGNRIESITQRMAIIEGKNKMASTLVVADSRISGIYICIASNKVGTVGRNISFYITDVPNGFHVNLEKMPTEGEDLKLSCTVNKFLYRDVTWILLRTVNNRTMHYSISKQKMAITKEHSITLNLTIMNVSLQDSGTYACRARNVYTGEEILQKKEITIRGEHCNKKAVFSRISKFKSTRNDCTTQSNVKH

B1: 42-H5 (VHH)
VHH: EVQLVESGGGLVQPGGSLTLSCAASGFTFSSYAMSWVRQAPGKGLELVSDINSGGISTYYADSVKGRFTISRDNAKNTLYLQMNSLKPEDTAVYYCKTDTLVAGTDDYWGQGTRVTVSS
notes: Purified Nanobody; Also used as negative control in the PDGFRβ assays
B2: 46-F11 (VHH)
VHH: EVQLVESGGGLVQPGGSLRLSCAASGFTFSSYAMSWVRQAPGKELEWVSGINSGGDRTVNADSVKGRFTVSRDNAKNTLYLQMNSLKPEDTALYYCAKSIPPTDDRNYWGQGTQVTVSS
B3: 53-E8 (VHH)
VHH: EVQLVESGGGLVQAGGSLRLDCAASGRTSYAMGWFRQGTGKEREFVAAISPSGYYTYYEDSVKGRFFIHRDNAKNMVYLQMNSLTPEDTAVYYCAAGRHQTVSGILPDYWGQGIQVTVSS
B4: 53-H5 (VHH)
VHH: EVQLVESGGGLVQIGGSLRLSCAASGRTFSSYAMGWFRQTPGKEREFVAAIGRNGGSIGYADSVKGRSTISRDNAKNMVYLQMNSLKPEDTAVYYCAATNKFSYSTLRNDYNYWGQGTQVTVSS

Key:
sVEGFR1 (human) = sVEGFR1 (human) (UniProt P17948); test: phage ELISA on coated sVEGFR1 (0.1 ug/ml), detection with HRP anti-M13
[1] = molecular target: Recombinant human PDGFRβ/Fc chimera (R&D Systems Cat #385 PR) (human) (UniProt P09619); test: ELISA binding screen on captured PDGFRβ-Fc and ELISA ligand competition

Binder | binding (sVEGFR1 (human)) | binding [1]
B1 | binds | –
B2 | binds | –
B3 | – | binds
B4 | – | binds
